Consider one molecule from publication doi:10.1101/540781.

Amino acid sequences for entries named in this document (tags omitted). A change or cut given only in a name is not applied to a line headed by its entry.
UniProt O14745: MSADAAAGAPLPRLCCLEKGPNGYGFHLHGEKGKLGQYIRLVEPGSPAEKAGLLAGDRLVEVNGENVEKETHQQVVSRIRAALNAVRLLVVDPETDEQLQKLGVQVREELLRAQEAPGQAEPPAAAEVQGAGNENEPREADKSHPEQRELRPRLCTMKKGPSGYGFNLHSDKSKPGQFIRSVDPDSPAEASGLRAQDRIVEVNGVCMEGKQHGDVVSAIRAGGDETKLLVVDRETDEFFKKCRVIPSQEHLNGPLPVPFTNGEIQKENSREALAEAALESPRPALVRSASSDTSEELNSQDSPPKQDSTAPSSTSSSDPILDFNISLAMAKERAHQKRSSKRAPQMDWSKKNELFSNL

These are yes or no findings as the source states them, for the method shown. In cells and extracts the contact can be indirect. Binding can be weak; no strength is given. Sequences can lack the tags named with a protein.

The target of this test is NHERF1 S1 (GYGF core-binding motif mutated to GAGA in PDZ1) (human) (UniProt O14745). In words: co-IP.

B1: FLAG-RGS14 (wild-type human regulator of G protein signaling 14) (protein, UniProt O43566 1-566)
chain: MPGKPKHLGVPNGRMVLAVSDGELSSTTGPQGQGEGRGSSLSIHSLPSGPSSPFPTEEQPVASWALSFERLLQDPLGLAYFTEFLKKEFSAENVTFWKACERFQQIPASDTQQLAQEARNIYQEFLSSQALSPVNIDRQAWLGEEVLAEPRPDMFRAQQLQIFNLMKFDSYARFVKSPLYRECLLAEAEGRPLREPGSSRLGSPDATRKKPKLKPGKSLPLGVEELGQLPPVEGPGGRPLRKSFRRELGGTANAALRRESQGSLNSSASLDLGFLAFVSSKSESHRKSLGSTEGESESRPGKYCCVYLPDGTASLALARPGLTIRDMLAGICEKRGLSLPDIKVYLVGNEQALVLDQDCTVLADQEVRLENRITFELELTALERVVRISAKPTKRLQEALQPILEKHGLSPLEVVLHRPGEKQPLDLGKLVSSVAAQRLVLDTLPGVKISKARDKSPCRSQGCPPRTQDKATHPPPASPSSLVKVPSSATGKRQTCDIEGLVELLNRVQSSGAHDQRGLLRKEDLVLPEFLQLPAQGPSSEETPPQTKSAAQPIGGSLNSTTDSAL
B1: the binding entry was “binds”.
